# Measurements: patent US20100137429A1, “COMPOSITION FOR T[…] TRANSMUCOSAL ADMINISTRATION” (FUJIMOTO CO., LTD., priority 2007, published 2010)
# Counter-ions that a name gives are not always drawn. The name of at least one read-out is uncertain.
# Test: Test Example 1: plasma level after single intravenous, subcutaneous and oral administration
# Format: in vivo, male SD rats
# Settings: rats
# Protocol: 0.5 mg/kg of the (−) isomer of the present compound (hydrochloride) (1 mL/kg of 0.5 mg/mL aqueous solution in physiological saline) was administered to the tail vein of each of male SD rats fasted since the previous day, and 5 minutes, 10 minutes, 20 minutes, 30 minutes, 45 minutes, 1 hour, 1.5 hours, 2 hours, 3 hours, 4 hours, and 6 hours after administration, whole blood was collected from the abdominal aorta. […]
# The blood collected from each rat was transferred to a blood collecting tube containing 2Na EDTA, then sufficiently mixed by turning the tube upside down, and then centrifuged at 3,000 rpm for 10 minutes, and the obtained plasma was recovered. […] The plasma level of the compound was measured by high performance liquid chromatography (HPLC). As a pharmacokinetic parameter, AUCO-t (area under the blood level-time curve, hereinafter referred to as “AUC”) was calculated by a trapezoidal method, and Cmax (maximum blood concentration) and tmax (time-to-maximum blood concentration) were determined from actual measurement values.
structure (smiles),measurement,setting,value
"CCCNC(CCC)Cc1cc2ccccc2o1 (single isomer, unassigned; (-)) [(−) isomer of the present compound (hydrochloride), (−)-1-(benzofuran-2-yl)-2-propylaminopentane]",bioavailability F (%) in oral administration relative to that in the intravenous administration,oral 10 mg/kg vs intravenous 0.5 mg/kg,about 1/24
same,bioavailability F (%) in oral administration relative to that in the subcutaneous administration,oral 10 mg/kg vs subcutaneous 1 mg/kg,about 1/35
